Data reported in US20240197643A1, “ORAL DELIVERY OF NANOPARTICLES FOR KIDNEY DISEASE” (UNIVERSITY OF SOUTHERN CALIFORNIA, priority 2020, published 2024).
For at least one compound, name, drawing or mass did not settle the structure.

Assay: Encapsulation study of everolimus or rapamycin in micelles
Assay type: physicochemical
Method: Micelles were assembled by dissolving DSPE-PEG(2000)-methoxy in methanol at 100 μM with either everolimus or rapamycin at different lipid:drug molar ratios (2:1, 5:1, 10:1, 20:1), mixing the components, and evaporating the organic solvent under nitrogen. The resulting film was dried under vacuum over night, and then hydrated at 80° C. for 30 min in water and allowed to cool to room temperature overnight before DLS and TEM analysis. DLS measurements were determined at 90° and 637 nm using a Malvern Zetasizer. Free drug was separated by syringe filtering micelles using PTFE syringe filter, pore size 0.1 μm. To calculate encapsulation efficiency and drug loading, micelles were disrupted using DMSO and encapsulated drug was quantified by reading absorbance at 278 nm in a UV Greiner 96-well plate.

[1] = DSPE-PEG(2000)-methoxy:drug molar ratio 2:1

CO[C@H]1C[C@@H]2CC[C@@H](C)[C@@](O)(O2)C(=O)C(=O)N2CCCC[C@H]2C(=O)O[C@H]([C@H](C)C[C@@H]2CC[C@@H](O)[C@H](OC)C2)CC(=O)[C@H](C)/C=C(\C)[C@@H](O)[C@@H](OC)C(=O)[C@H](C)C[C@H](C)/C=C/C=C/C=C/1C [Rapamycin]
Encapsulation efficiency (%) [1]: 88.6 ± 5.9% | Loading capacity (wt/wt %) [1]: 12.6 ± 0.7 wt/wt % | Moles drug per mole micelle [1]: 0.1 ± 0.001 | Size (nm) (drug-loaded micelles, lipid:drug 2:1): 9.4 ± 0.4 nm
